Values from PubChem BioAssay AID1259331 (Drosophila RNAi Screening Center, 2017).
Assay: 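Fly transmembrane-protein genes that affect zinc toxicity in cultured cells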 (primary screen). System: Drosophila S2R+ cells. Reagent: long dsRNA against Drosophila genes. Time to read-out: 5 days (4 days knock-down, then 1 day zinc). Conditions: zinc chloride at 15 mM final level for 1 day. Measured: 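Total cellular ATP measured by luciferase luminescence as a viability proxy, turned into Z scores from three plate copies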. Scale: mean Z score: higher = more ATP than other wells, better survival under zinc; ATP luminescence: higher = more ATP, more viable cells. Hit rule: 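a reagent is called a hit when its Z score is above 1.5 or below -1.5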. Calls: active = hit, ATP up or down; inactive = not a hit.
In all, the deposit lists about 3,100 reagents; below is a random part of them. 126 of all reagents (4.1%) were called active. 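Calls are per reagent; zinc was so toxic that few knock-downs lowered ATP further, so most hits raise ATP.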 Raw values are not corrected between plates. A number with no mark means an inactive call. The numbers tell different reagents against one gene apart. Not given: the amount of reagent.

gene	reagent	mean Z score	ATP luminescence, replicate 1	ATP luminescence, replicate 2
OtopLb (Otopetrin-like b)	1	-0.0985	51372	58506
OtopLb (Otopetrin-like b)	2	-0.135	57820	56031
Tsp3A (Tetraspanin 3A)	1	-0.613	54304	57511
Tsp3A (Tetraspanin 3A)	2	-0.167	57940	50142
Adgf-A2 (Adenosine deaminase-related growth factor A2)	1	-0.433	59140	58591
Adgf-A2 (Adenosine deaminase-related growth factor A2)	2	0.265	57614	51715
Gr21a (Gustatory receptor 21a)	1	-0.36	41445	40444
Gr21a (Gustatory receptor 21a)	2	0.0133	63513	59647
Efr (ER GDP-fucose transporter)	1	-0.755	52497	54593
Efr (ER GDP-fucose transporter)	2	0.262	63359	63359
Gr28a (Gustatory receptor 28a)	1	-0.355	45772	43262
smo (smoothened)	1	-0.401	45785	55625
smo (smoothened)	2	0.0539	67475	56876
SLC22A (SLC22A family member)	1	-0.495	67234	51250
SLC22A (SLC22A family member)	2	-0.27	69670	53653

Part of the list above, set out differently.
{"gene":"smo (smoothened)","reagent":1,"mean Z score":-0.401,"ATP luminescence, replicate 1":45785,"ATP luminescence, replicate 2":55625}
{"gene":"smo (smoothened)","reagent":2,"mean Z score":0.0539,"ATP luminescence, replicate 1":67475,"ATP luminescence, replicate 2":56876}
{"gene":"SLC22A (SLC22A family member)","reagent":1,"mean Z score":-0.495,"ATP luminescence, replicate 1":67234,"ATP luminescence, replicate 2":51250}

Continued:
gene	reagent	mean Z score	ATP luminescence, replicate 1	ATP luminescence, replicate 2
nrv1 (nervana 1)	1	0.505	62484	64250
CG31321	1	0.127	47326	43999
CG31321	2	-0.686	43468	58643
ATPsynbeta (ATP synthase, beta subunit)	1	0.602	75295	76788
oys (oysgedart)	1	1.52 (active)	62741	62913
oys (oysgedart)	2	-0.344	30525	30507
oys (oysgedart)	3	0.243	60649	61146
Tsp42Ef (Tetraspanin 42Ef)	1	-0.777	73597	61089
PGRP-SB1 (Peptidoglycan recognition protein SB1)	1	-0.0278	61181	66008
Ant2 (Adenine nucleotide translocase 2)	1	-0.188	55642	56208
CG30047	1	-0.839	28999	31664
CG30379	1	0.506	38856	55745
CG30379	2	-0.143	51767	56774
